# Results: article PMC12040169 (PLOS Biology, 2025)
# Some of the results follow.
# Test system: T1, CTL2-GFP (C. trachomatis L2/434/Bu, GFP-expressing)
# T1 construct: L2/434/Bu, GFP-expressing
# Set-up: species or system HeLa; Intracellular C. trachomatis growth in HeLa cells, bulk GFP fluorescence relative to DMSO
# Details: bulk GFP, single well; 28.5 h, 10 µM; inhibitor
row,Structure (SMILES),% of control remaining [%]
1,COC(=O)[C@@H]1Cc2ncn(C(C)C)c2CN1C(=O)c1ccccc1 [CBK288987],136.975
2,Cc1nn(C)c(C)c1CCC(=O)NCC1CN(c2ccccc2)CCO1 (stereo not shown) [CBK307199],144.009
3,Cc1cc(COc2ccnc(N3CCCN(CC4CC4)CC3)n2)no1 [CBK084073],122.115
4,Cc1nn(CC(=O)N(C)CCCc2nccn2C)c(=O)c2ccccc12 [CBK307087],138.845
5,Cc1ccc(NC(=O)c2cc(NC(=O)C3CC=CCC3C(=O)O)ccc2N2CCOCC2)cc1Cl (stereo not shown) [CBK265323],106.831
6,Cn1nc(C2CCN(C(=O)C3CCCCC3)CC2)c2cccnc21 [CBK284897],122.689
7,Cc1ccc(C)c(-c2nc(-c3cccnc3)no2)c1 [CBK288018],90.6036
8,Cc1nnc(N/N=C/c2ccc(OC3CCCC3)cc2)nc1O [CBK058025],104.364
9,O=C(CO)N1CC2(CCN(CC3COc4ccccc4O3)CC2)c2ccccc21 (stereo not shown) [CBK143951],125.922
10,COc1cc(/C=C2\SC(=N)NC2=O)cc(Br)c1OS(=O)(=O)c1ccc(C)cc1 [CBK263609],125.715
11,CN(C)c1ncc(Br)cc1C(=O)NCCNS(=O)(=O)c1ccccc1 [CBK076504],108.169
12,COc1cccc(C(=O)N2CCC(NC(=O)c3cc(F)ccc3F)CC2)c1 [CBK155026],105.867
13,CC(C)(C)CN1CCC(Oc2nccnc2OCc2ccc(Br)cc2F)CC1 [CBK161946],123.67
14,O=C(N/N=C\C=C\c1ccco1)c1ccc([N+](=O)[O-])cc1 [CBK261961],101.272
15,Cc1c(C)n(Cc2cccnc2)c2ncn(C3CCCCCC3)c(=N)c12 [CBK287932],114.35
16,O=c1cc(N2CCN(CC3(O)CCNC3)CC2)c(-c2ccccc2)n[nH]1 (stereo not shown) [CBK307088],152.51
17,c1ccc(Sc2nccnc2N2CCCC2)nc1 [CBK093734],100
18,CNS(=O)(=O)c1cc(C(=O)O)c(OC)cc1OC [CBK110325],124.905
19,CCOC(=O)c1cnn(C2CCCN(Cc3cc(C#N)cs3)C2)c1 (stereo not shown) [CBK305399],135.388
20,CC(C(=O)O)N1C(=O)c2ccccc2C1c1c[nH]c2ccccc12 (stereo not shown) [CBK286576],108.599
21,Cc1nc(C2CCCC2)cc([C@H]2CN3CC[C@H]2C[C@@H]3CNS(C)(=O)=O)n1 [CBK289121],128.431
22,CC1CCC/C(=N\NC(=O)C2C3CCCCC32)C1 (stereo not shown) [CBK025750],102.389
23,Cc1ccccc1NS(=O)(=O)c1cc(C(=O)Nc2ccc(S(=O)(=O)N3CCCC3)cc2)ccc1C [CBK269004],117.896
24,O=C(O)c1ccccc1SC1CCc2ccccc2NC1=O (stereo not shown) [CBK286683],164.217
25,O=C(N[C@H]1CO[C@H]2[C@@H]1OC[C@@H]2Nc1nccc(-c2cccs2)n1)C1CC1 [CBK289517],116.712

# An excerpt from above in order of molecular weight, low to high.
row,Structure (SMILES),% of control remaining [%]
22,CC1CCC/C(=N\NC(=O)C2C3CCCCC32)C1 (stereo not shown) [CBK025750],102.389
18,CNS(=O)(=O)c1cc(C(=O)O)c(OC)cc1OC [CBK110325],124.905
6,Cn1nc(C2CCN(C(=O)C3CCCCC3)CC2)c2cccnc21 [CBK284897],122.689
19,CCOC(=O)c1cnn(C2CCCN(Cc3cc(C#N)cs3)C2)c1 (stereo not shown) [CBK305399],135.388
25,O=C(N[C@H]1CO[C@H]2[C@@H]1OC[C@@H]2Nc1nccc(-c2cccs2)n1)C1CC1 [CBK289517],116.712
12,COc1cccc(C(=O)N2CCC(NC(=O)c3cc(F)ccc3F)CC2)c1 [CBK155026],105.867
21,Cc1nc(C2CCCC2)cc([C@H]2CN3CC[C@H]2C[C@@H]3CNS(C)(=O)=O)n1 [CBK289121],128.431
9,O=C(CO)N1CC2(CCN(CC3COc4ccccc4O3)CC2)c2ccccc21 (stereo not shown) [CBK143951],125.922
11,CN(C)c1ncc(Br)cc1C(=O)NCCNS(=O)(=O)c1ccccc1 [CBK076504],108.169

# Following part:

row,Structure (SMILES),% of control remaining [%]
1,Cc1ccccc1C(=O)N/N=C/c1ccc(Sc2nnnn2-c2ccccc2)o1 [CBK263259],116.464
2,Fc1ccc(OCc2nnn[nH]2)c(F)c1 [CBK269473],128.296
3,O=C(O)c1ccc(C(=O)O)c(-c2ccccc2)c1 [CBK261102],108.329
4,Cc1nn(C)cc1-c1cncn1CCCOc1ccc(Cl)cc1 [CBK281787],109.349
5,CCCC(=O)Nc1ccc(C(=O)Nc2ccccc2C(=O)O)cc1 [CBK265111],167.372
6,NC(=O)N1CCC(C(=O)N2CC3(CCCC3)c3c(F)cccc32)CC1 [CBK304973],84.3193
7,Cc1ccc(C#N)c(S(=O)(=O)Nc2cc(N3C[C@@H](C)N[C@@H](C)C3)c3occc3c2)c1 [CBK034756C],88.2886
8,COc1ccc(N2CCN(c3cncc(-c4cc(OC)c(OC)c(OC)c4)n3)CC2)cc1OC [CBK037988],144.058
9,CN1CCN(c2ccc(-c3cncc(N4CCN(c5ccncc5)CC4)n3)cn2)CC1 [CBK065144],174.547
10,O=C(O)c1ccc2c(c1)C(=O)N(c1ccc(-c3ccnc(-c4ccc(N5C(=O)c6ccc(C(=O)O)cc6C5=O)cc4)n3)cc1)C2=O [CBK261192],108.806
11,CC(=O)Nc1cccc(-c2cnc3[nH]c(=O)n([C@@H](C)c4ccccc4)c3n2)c1 [CBK064159],79.0887
12,COc1ccc(-c2cc(C(=O)NCC(=O)O)c(C)o2)cc1OC [CBK287130],126.496
13,c1cc(CNc2nccnc2-c2ccsc2)ccn1 [CBK037513],122.562
14,CC(C)c1ccc(S(=O)(=O)Nc2ccc(O)c(Sc3nc[nH]n3)c2)cc1 [CBK266861],154.291
15,CCc1nn(CCN2CCCC2)c(=O)c2cc3sc(C)cc3n12 [CBK284098],158.306
16,Fc1ccccc1-c1nccnc1NCc1cccs1 [CBK038088],235.217
17,CS(=O)(=O)Nc1ccc(CC#N)cc1 [CBK038145],121.861
18,CN(C(=O)C1CC1)C1CCN(c2ncnc3ccccc23)CC1 [CBK304946],96.593
19,O=C(O)c1ccccc1NC(=O)N1CCc2[nH]cnc2C1c1cccc(F)c1 (stereo not shown) [CBK286824],143.193
20,c1cc(CCNc2cc(-c3ccc4c(c3)OCO4)ncn2)ccn1 [CBK037689],112.726
21,CC(NC(=O)c1ccccc1Br)c1nnc(SCc2ccc([N+](=O)[O-])cc2)n1C (stereo not shown) [CBK267810],85.9425
22,CC1CC(C)CN(C(=O)CN2C(=O)N3CCN=C3c3ccccc32)C1 (stereo not shown) [CBK283960],108.198
23,CN1C[C@@H](NC(=O)c2cccnc2)C[C@H]1c1nc(-c2cccnc2)no1 [CBK288857],107.062
24,COc1cc(Nc2cccc(-c3cccc(NC(C)=O)c3)n2)cc(OC)c1OC [CBK037698],92.8172
